Measurements from PubChem BioAssay AID2685 (National Center for Advancing Translational Sciences (NCATS), 2010).
Hit rate of the full screen: of about 320,000 compounds, about 2,100 (0.66%) were called active. The shares of active, inactive and inconclusive entries below differ from those in the screen. The call rests on the fitted dose curve; in most records, active means well fitted inhibition curve with a large enough effect in the signal ratio, with a control signal flat (not every such curve was filed as active); inconclusive means small, poorly fitted or top-dose-only effect, or effect the other way, or a change in a side signal; inactive means flat fitted curve, though single readings scatter; the % refers to the signal ratio. Potencies of inconclusive entries are doubtful fits and often do not repeat.

assay: qHTS Assay for Lipid Storage Modulators in Drosophila S3 Cells; conditions: BODIPY lipid droplet fluorescence, 18-24 h, cells fed with added oleic acid; lipid storage change, negative = inhibition: at 46.1 µM (top of the series) unless noted
In short: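 Drosophila S3 cells got compounds at several concentrations plus oleic acid (400 uM solution). Laser-scanning cytometry with 488 nm excitation read lipid droplets at 500-530 nm and cells at 575-640 nm. Percent activity was relative to 20 uM Triacsin C.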
On the % scale 0 is the no-effect control and ±100 the full control effect; potency means the concentration at half of the fitted maximal effect.

SMILES | lipid storage change, negative = inhibition | Potency | outcome
O=C(CCCc1nc(-c2ccccc2)no1)N1CCOCC1 | inconclusive: 5.41% |  | 
C(=N\n1cnnc1)/c1cccc2ccccc12 |  | inconclusive: 0.13 µM [activator, full curve, poor fit] | 
CCOc1ccc(NC(=S)N2CCCC2)cc1 | inconclusive: 15.7% |  | 
CCOC(=O)[C@H]1[C@H]2COc3ccccc3[C@@H]2N2C(=O)c3cc(F)ccc3NC(=O)[C@@]12C | inconclusive: -28.1% |  | 
Cc1onc(-c2ccccc2Cl)c1C(=O)NC1CCCCCC1 | inconclusive: 20.5% |  | 
O=C(Nc1nc2ccccc2n1Cc1ccccc1)c1ccc(COc2ccccc2[N+](=O)[O-])o1 | inconclusive: -53.9% |  | 
CSc1nc(=S)n(-c2ccc([N+](=O)[O-])cc2)c(C)c1C(C)=O | inconclusive: 15.2% |  | 
Nc1nc(SCC(=O)NCC2CCCO2)[nH]c(=O)c1NC(=O)c1ccc(F)c(F)c1 (stereo not drawn) | inconclusive: 13.5% |  | 
CC1(C(=O)O)Sc2[nH]c(=O)sc2C2c3ccccc3OC(=O)C21 (stereo not drawn) |  | inconclusive: 9.2 µM [activator, partial curve] | 
CC(=O)N1c2ccc(S(=O)(=O)N3CCCCC3)cc2CC1C(=O)Nc1ccc(C)cc1 (stereo not drawn) |  | inconclusive: 29.1 µM [activator, single point] | 
COc1ccc(N(C)C(=O)c2cc3c(s2)-c2ccc(Cl)cc2S(=O)(=O)C3)c(OC)c1 |  | inconclusive: 6.51 µM [activator, single point] | 
COc1ccccc1C1C(C(C)=O)=C(C)N=c2s/c(=C\c3cc(OC)c(OC)c(OC)c3)c(=O)n21 (stereo not drawn) |  | inconclusive: 20.6 µM [falling, single point] | 
O=C(CN1CCN(S(=O)(=O)c2ccccc2)CC1)Nc1ccc(Cl)c(Cl)c1 |  |  | inactive [at 46.1 µM]
C/C(=N\Nc1ccc(Cl)cc1)c1ccncc1 | inconclusive: 20% |  | 
CC(C)(C)CC(=O)Nc1nnc(SCC(=O)NC2CCCCC2)s1 |  | inconclusive: 29.1 µM [falling, single point] | 
COc1ccc(OCC(=O)OCCN2C(=O)c3ccccc3C2=O)cc1 | inconclusive: 107% |  | 
CC(=O)NC(CC(=O)Oc1ccc(C)cc1Br)c1ccccc1 (stereo not drawn) | inconclusive: -13% |  | 
Cc1ccc(-c2nc3cc(Cl)ccc3o2)cc1 |  | inconclusive: 2.31 µM [activator, partial curve] | 
Cc1cc([N+](=O)[O-])nn1CCCC(=O)NCc1ccccc1 |  | inconclusive: 29.1 µM [rising, single point] | 
C/C(=N/OC(=O)c1cccc(C(F)(F)F)c1)c1cnccn1 | inconclusive: -38.7% [at 0.00295 µM] |  | 
COc1ccc(CNC(=O)CNC(=O)c2ccc(Br)o2)cc1OC | inconclusive: 17.4% |  | 
CSc1cccc(NC(=S)Nc2ccc(F)cc2)c1 | inconclusive: -0.448% |  | 
Cc1ccccc1OCCn1nc(C(=O)O)c2ccccc2c1=O |  | inconclusive: 2.91 µM [activator, partial curve] | 
CCCc1[nH]nc2c1C(c1cn[nH]c1-c1ccc(F)cc1)C(C#N)=C(N)O2 (stereo not drawn) |  | inconclusive: 14.6 µM [falling, partial curve] | 
CCc1ccc(NC(=O)C2CCN(C(=O)[C@@H]3Cc4ccccc4CN3)CC2)cc1 |  | inconclusive: 18.4 µM [activator, single point] | 
NC(=O)CC(NC(=O)Cc1ccc(Br)cc1)c1ccc(NC2CCC2)c([N+](=O)[O-])c1 (stereo not drawn) |  | inconclusive: 7.31 µM [activator, partial curve] | 

SMILES | lipid storage change, negative = inhibition | Potency | outcome
CNC(=O)COC(=O)/C=C/c1ccco1 | inconclusive: -19.9% |  | 
COc1ccc(Sc2nc3ccccc3n3c(C(F)(F)F)nnc23)cc1 | inconclusive: -22.8% |  | 
Cc1ccc(C)c2sc(NC(=O)c3ccc(N4C(=O)CCC4=O)cc3)nc12 | inconclusive: 26.6% |  | 
CC(C)(C)C(=O)NC(Nc1cccc2cccnc12)C(Cl)(Cl)Cl (stereo not drawn) | inconclusive: -6.27% |  | 
CCCNC(=S)N1CCN(C(c2ccccc2)c2ccccc2)CC1 | inconclusive: 13.7% |  | 
Cc1nccn1CC(=O)N/N=C/c1ccccc1O | inconclusive: -5.38% |  | 
COc1ccc(NC(=S)Nc2ccc(F)cc2)cc1 | inconclusive: -28.8% |  | 
COCCCn1c(=O)/c(=C\c2ccccc2OC(F)F)s/c1=C(/C#N)C(N)=O | inconclusive: 3.18% |  | 
CCN(Cc1ccccc1)C(=O)Cn1c(=O)n(CCC(=O)N2CCCCC2)c(=O)c2sccc21 | inconclusive: -81.4% |  | 
CC1=C(C(=O)OCc2ccccc2)C(c2cccnc2)c2c(n(C)c(=O)n(C)c2=O)N1 (stereo not drawn) |  | inconclusive: 14.6 µM [falling, partial curve] | 
COc1cc(/C=C2\CC/C(=C\c3cc(OC)c(OC)c(OC)c3)C2=O)cc(OC)c1OC | inconclusive: -20.1% |  | 
COc1cccc(CCc2nnc(CCC(=O)NC(C)c3c(C)nn(C)c3C)o2)c1 (stereo not drawn) | inconclusive: 21.4% |  | 
CC(=O)NCCc1nc2ccccc2n1CCOc1ccccc1C | inconclusive: 53.4% |  | 
Cc1ccc(NC2CCCN(C(=O)c3ccoc3C)C2)cc1C (stereo not drawn) | inconclusive: 131% |  | 
CC1=Nc2cc(C(=O)NCc3ccco3)ccc2Sc2ccc(C)cc21 | inconclusive: -1.05% |  | 
Cc1[nH]n(C(N)=S)c(=O)c1C(c1ccccc1)C(C#N)C#N (stereo not drawn) |  | inconclusive: 18.4 µM [rising, single point] | 
CCOCCOC(=O)C1=C(C)N(C)C(=O)NC1c1ccccc1F (stereo not drawn) | inconclusive: -9.46% |  | 
Oc1ccc(C23CCCC2C2(CCCC2)c2ccc(O)cc2O3)c(O)c1 (stereo not drawn) |  | inconclusive: 29.1 µM [falling, single point] | 
CCc1ccc(-c2cc(C(F)(F)F)n3nc(C(=O)Nc4cnn(Cc5ccc(C)cc5)c4)cc3n2)s1 | inconclusive: -26.2% |  | 
CC(=O)c1c(C)cc(C)c(CSc2nnc(-c3ccco3)o2)c1C | inconclusive: 101% |  | 
CCn1nnc(NC(=O)c2cccnc2)n1 |  | inconclusive: 0.731 µM [cytotoxic, single point] | 
CC(NC(=O)c1ccc(F)cc1)c1ccc(F)cc1 (stereo not drawn) | inconclusive: -22.5% |  | 
COc1ccccc1N(CN1C(=O)c2ccccc2C1=O)C(=O)c1cccnc1 | inconclusive: 25.6% |  | 
CCOC(=O)c1c[nH][nH]c1=O | inconclusive: 52% |  | 
CCOC(=O)N1CCN(C(=O)c2ccc(N3CCCC3=O)cc2)CC1 | inconclusive: 18.7% |  | 
O=C(NCc1ccccc1)C1=C[C@H](C2CC2)C[C@H](OCCCCO)O1 | inconclusive: 8.87% |  | 

Gathered by group: the compounds so far containing a thiophene ring, fused or not
SMILES | lipid storage change, negative = inhibition | Potency | outcome
COc1ccc(N(C)C(=O)c2cc3c(s2)-c2ccc(Cl)cc2S(=O)(=O)C3)c(OC)c1 |  | inconclusive: 6.51 µM [activator, single point] | 
CCN(Cc1ccccc1)C(=O)Cn1c(=O)n(CCC(=O)N2CCCCC2)c(=O)c2sccc21 | inconclusive: -81.4% |  | 
CCc1ccc(-c2cc(C(F)(F)F)n3nc(C(=O)Nc4cnn(Cc5ccc(C)cc5)c4)cc3n2)s1 | inconclusive: -26.2% |  | 

An excerpt from above in order of SMILES length, ascending:
SMILES | lipid storage change, negative = inhibition | Potency | outcome
CCOC(=O)N1CCN(C(=O)c2ccc(N3CCCC3=O)cc2)CC1 | inconclusive: 18.7% |  | 
Cc1[nH]n(C(N)=S)c(=O)c1C(c1ccccc1)C(C#N)C#N (stereo not drawn) |  | inconclusive: 18.4 µM [rising, single point] | 
Cc1ccc(C)c2sc(NC(=O)c3ccc(N4C(=O)CCC4=O)cc3)nc12 | inconclusive: 26.6% |  | 

Following part

SMILES | lipid storage change, negative = inhibition | Potency | outcome
COc1ccc(NC(=O)CCCn2c(=O)c3sccc3n(Cc3ccc(C)cc3)c2=O)cc1 |  | inconclusive: 29.1 µM [falling, single point] | 
NNC(=O)c1nnn(-c2nonc2N)c1CN1CCc2ccccc2C1 | inconclusive: 47.9% |  | 
Cc1cnc(NC(=O)c2ccc(-c3nc4ccccc4s3)o2)s1 | inconclusive: 17.9% |  | 
O=C(Cc1cc(=O)[nH][nH]1)N/N=C/c1cccc2ccccc12 | inconclusive: 11.5% |  | 
CCc1nnc(NC(=O)c2ccc(OC)cc2OC)s1 |  | inconclusive: 1.03 µM [activator, full curve] | 
Cc1[nH]c2ccccc2c1C(=O)CN1CCCC1 | inconclusive: 9.49% |  | 
CCn1c(SCc2nc(-c3ccc(Cl)cc3)no2)nnc1-c1ccco1 | inconclusive: -30.8% |  | 
O=C(c1cc2ccccc2oc1=O)N(Cc1ccco1)CC1CCCO1 (stereo not drawn) | inconclusive: -103% |  | 
CS(=O)(=O)N1CCN(c2ccccc2NC(=O)c2ccc([N+](=O)[O-])o2)CC1 | inactive: -12.3% |  | 
Fc1ccc(NC(=S)NCc2ccc3c(c2)OCO3)cc1 | inconclusive: 23.5% |  | 
Cc1ccc(C(c2nnnn2C2CCCC2)N2c3ccccc3CC2C)cc1 (stereo not drawn) | inconclusive: -66.7% |  | 
COc1ccc(CCNC(=O)CSc2nn(-c3ccccc3)c(=S)s2)cc1 | inconclusive: 19.9% |  | 
Cc1ccc(C2=NN=C(NC(=O)C(F)(F)F)SC2)cc1 | inconclusive: 24.2% |  | 
COc1ccc(CN2C(=NC(=O)C3CCCO3)SC3CS(=O)(=O)CC32)cc1 (stereo not drawn) | inconclusive: 184% |  | 
CC(=O)N1CCN(S(=O)(=O)c2cccc(C(=O)Nc3nccs3)c2)CC1 | inconclusive: -13.7% |  | 
CN(C)c1cc[n+](CC(=O)c2cccs2)cc1 |  | inconclusive: 0.651 µM [falling, partial curve, poor fit] | 
Cc1ccccc1NC(=O)C1C2C=CC(C3CC23)C1C(=O)O (stereo not drawn) |  | inconclusive: 4.11 µM [activator, full curve, poor fit] | 
COc1ccc(CCNC(=O)C2CCC(CNc3c(N4CCCC4)c(=O)c3=O)CC2)cc1OC (stereo not drawn) | inconclusive: -32.5% |  | 
Cc1cccc(NC(=S)NC(=O)c2ccc(Br)o2)c1C |  | inconclusive: 18.4 µM [rising, partial curve] | 
COc1cc(/C=C2/C(=O)ON=C2c2ccccc2)ccc1O | inconclusive: 5.35% |  | 
CCOc1ccc(C(C)NC(=O)CN2C(=O)NC3(CCCCC3)C2=O)cc1OCC (stereo not drawn) |  | inconclusive: 4.11 µM [falling, single point] | 
COc1ccc(S(=O)(=O)N(C)c2ccc(C(=O)N3CCCCC3)cc2)cc1 |  |  | inactive [at 46.1 µM]
CC(=O)Nc1ccc(S(=O)(=O)Nc2nc(C)cc(-n3nc(C)cc3C)n2)cc1 | inconclusive: -70.3% |  | 
Cc1cc(C)nc(NC(=O)CSc2ncccn2)n1 | inconclusive: -4.35% |  | 
O=[N+]([O-])c1ccc(N2CCN(S(=O)(=O)c3ccccc3)CC2)c2cccnc12 | inconclusive: 2.43% |  | 
Cc1cccc(N2CCN(C(=O)C3CCN(S(=O)(=O)c4cccnc4)CC3)CC2)c1C |  | inconclusive: 23.1 µM [activator, single point] | 
